Assay results: paper PMC4421793, “A secretory kinase complex regulates extracellular protein phosphorylation” (eLife, 2015)
No constants are given. Whether binding was seen depends on the method and setting. Binding seen in cells or lysates may run through a third protein. Some results given as binding are weak or reduced against the parent protein; the word gives no strength. For part of these data: Tags and fused reporters may be left off the sequences shown. Each block holds one binder with its values, some of them ahead of it.

Amino acid sequences for entries named in this document (tags omitted). Residues count along the entry.
UniProt Q5MJS3, residues 88-579: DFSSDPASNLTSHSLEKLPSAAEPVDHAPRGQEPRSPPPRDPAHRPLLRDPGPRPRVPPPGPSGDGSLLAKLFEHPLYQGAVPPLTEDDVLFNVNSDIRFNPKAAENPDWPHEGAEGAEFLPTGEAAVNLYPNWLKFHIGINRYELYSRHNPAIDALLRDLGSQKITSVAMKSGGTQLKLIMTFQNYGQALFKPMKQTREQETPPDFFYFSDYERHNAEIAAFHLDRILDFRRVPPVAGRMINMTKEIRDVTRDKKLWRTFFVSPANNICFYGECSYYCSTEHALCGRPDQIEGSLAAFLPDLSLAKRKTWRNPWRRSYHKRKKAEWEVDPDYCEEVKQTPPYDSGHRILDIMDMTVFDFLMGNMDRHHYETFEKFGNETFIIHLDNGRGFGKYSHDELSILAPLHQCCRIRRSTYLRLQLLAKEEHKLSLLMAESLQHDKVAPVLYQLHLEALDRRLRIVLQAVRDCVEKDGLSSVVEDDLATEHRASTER

Key:
[1] = target: T1, V5-tagged Fam20A (Fam20A-V5), stably expressed in U2OS cells (human) (UniProt Q96MK3); experiment: co-IP; Flag- and V5-tagged proteins stably co-expressed in U2OS cells
T1 sequence: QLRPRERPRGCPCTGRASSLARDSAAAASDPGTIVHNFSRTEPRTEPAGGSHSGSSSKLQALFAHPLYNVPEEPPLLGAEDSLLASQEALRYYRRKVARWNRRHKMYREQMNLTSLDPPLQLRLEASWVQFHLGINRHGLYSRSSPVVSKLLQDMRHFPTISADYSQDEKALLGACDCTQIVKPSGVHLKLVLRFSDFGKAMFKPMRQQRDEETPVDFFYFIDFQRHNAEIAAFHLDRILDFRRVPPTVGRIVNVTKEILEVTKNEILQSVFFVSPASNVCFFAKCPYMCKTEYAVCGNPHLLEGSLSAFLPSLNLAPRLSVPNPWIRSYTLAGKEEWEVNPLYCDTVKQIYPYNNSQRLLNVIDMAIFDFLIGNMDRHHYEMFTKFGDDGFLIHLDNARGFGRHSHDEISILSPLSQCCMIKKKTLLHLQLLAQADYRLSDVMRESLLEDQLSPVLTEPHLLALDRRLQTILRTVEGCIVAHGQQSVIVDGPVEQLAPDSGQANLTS

[2] = target: T2, V5-tagged Fam20B (Fam20B-V5), stably expressed in U2OS cells (human) (UniProt O75063); experiment: as above
T2 sequence: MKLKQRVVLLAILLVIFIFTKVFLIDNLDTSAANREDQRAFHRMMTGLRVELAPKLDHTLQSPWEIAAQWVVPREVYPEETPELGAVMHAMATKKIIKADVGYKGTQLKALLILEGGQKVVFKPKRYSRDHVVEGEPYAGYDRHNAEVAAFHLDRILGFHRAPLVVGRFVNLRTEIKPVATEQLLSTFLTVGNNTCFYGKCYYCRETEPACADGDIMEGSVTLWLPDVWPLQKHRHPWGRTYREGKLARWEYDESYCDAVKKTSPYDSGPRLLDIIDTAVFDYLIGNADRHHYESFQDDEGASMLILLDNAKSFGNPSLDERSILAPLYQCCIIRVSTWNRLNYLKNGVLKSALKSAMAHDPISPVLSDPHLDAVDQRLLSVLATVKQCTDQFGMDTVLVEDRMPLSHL

[3] = target: endogenous Fam20C of the lactating mouse mammary gland (mouse (endogenous in C57BL/6 mammary gland)) (UniProt Q5MJS3); experiment: co-IP; endogenous proteins, ER/Golgi-enriched fraction of lactating mouse mammary gland, 100 mM NaCl and 1% Triton X-100 added; rabbit polyclonal anti-Fam20C for immunoprecipitation, normal rabbit IgG as control

binding [1]: binds | binding [2]: no binding
B1: Flag-tagged Fam20A (Fam20A-Flag), stably expressed in U2OS cells (protein, UniProt Q96MK3 34-541)
chain: T1 sequence

binding [3]: binds
B2: endogenous Fam20A of the lactating mouse mammary gland (protein, UniProt Q8CID3 34-541)
chain: QLRPGERPAACPCSGRAPSASLHSAAASRDLGTASHNFSGALPRVEHPSRGHPAPRSKLQALFAHSLYQVLEDPPLLGPEDWLLASQEALRYYRRKVARWNRRHKIYKEQFNLTSLDPPLQFRPEASWVQFHLGINSHGLYSRSSLAISKLLHDMRHFPTISADYSQDEKALLGACDCSQIVKPSGVHLKLVLRFSDFGKAMFKPMRQQREEETPEDFFYFIDFQRHNAEIAAFHLDRILDFRRVPPTVGRLVNVTKEILEVTKNEILQSVFFVSPANNVCFFAKCPYMCKTEYAVCGNPHLLEGSLSAFLPSLNLAPRLSVPNPWIRSYSLSGKEEWELNPLYCDTVKQIYPYNSSNRLLGIIDMAVFDFLIGNMDRHHYEMFTKFGDDGYLIHLDNARGFGRHSQDEISILAPLAQCCMIKRKTLLHLQLLAQADYRLSDVMRESLLEDQLSPVLTEPHLLALDRRLQIILKTVEDCIEAHGERRVIAEGSAQRSAPDSGQANLTS
